Assay results: US10752588B2 (The Broad Institute, Inc., priority 2014, dated 2020)
For at least one compound, name, drawing or mass did not settle the structure.

By UniProt entry, the sequences of proteins in these tests, tags left out. Where a name states a change or a piece, a line headed by the entry shows the natural chain unless it says otherwise.
UniProt P14416, whole entry: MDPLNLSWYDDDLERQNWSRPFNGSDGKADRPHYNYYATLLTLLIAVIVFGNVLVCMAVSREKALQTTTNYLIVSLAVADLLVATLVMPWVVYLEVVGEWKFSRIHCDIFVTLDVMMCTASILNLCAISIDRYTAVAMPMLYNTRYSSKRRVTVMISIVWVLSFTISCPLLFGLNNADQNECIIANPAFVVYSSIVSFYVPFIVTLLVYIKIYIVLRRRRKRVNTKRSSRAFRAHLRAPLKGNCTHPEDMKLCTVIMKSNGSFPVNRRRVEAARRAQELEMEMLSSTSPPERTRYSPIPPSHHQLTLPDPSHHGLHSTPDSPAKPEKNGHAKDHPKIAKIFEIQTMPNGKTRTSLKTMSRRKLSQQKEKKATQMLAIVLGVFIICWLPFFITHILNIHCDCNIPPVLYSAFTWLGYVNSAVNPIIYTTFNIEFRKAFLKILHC

Key:
[1] = molecular target: T1, human D2R/β-arrestin (Homo sapiens (Human), UniProt P14416); settings: CHO-K1 cell line expressing human D2R/β-arrestin, β-arrestin and Gi/cAMP pathways, FIG. 1
[2] = molecular target: T1, human D2R/β-arrestin; test: Gi/cAMP agonist assay (Lance Ultra cAMP, Forskolin); assay type: cell-based; settings: CHO-K1 cell line expressing human D2R/β-arrestin, β-arrestin and Gi/cAMP pathways, FIG. 1
Protocol: The assays can be performed using proper detection reagents either prepared using routine methods known in the art or commercially available (e.g., PE Lance Ultra cAMP kit (TRF0263)). Cells are grown to the necessary confluence and then detached. The cells are then centrifuged, washed, resuspended, and seeded into a container (e.g., 384-well plate). The cells are incubated (e.g., at 37° C., 5% CO2) for the appropriate period of time (e.g., 24 hours), before various compounds (e.g., a compound of the invention or a control compound) are added to the cells. Afterwards, cAMP inducing agents (e.g., Forskolin) are added to and incubated with the cells before detection reagents (e.g., a cAMP antibody, such as ULight-anti-cAMP solution) are added to the cells. Read-out (e.g., luminescence, or fluorescence) is detected using standard equipment.
Compounds were pin-transferred (100 nL) to the cells, and incubated for 10 min. at 37° C. […] Eu-cAMP tracer solution (100, PerkinElmer, […] in 17.64 ml kit buffer) and ULight-anti-cAMP solution (100, 120 μL antibody in 17.88 ml kit buffer) was then added to each well.

SMILES: O=C(NC(c1ccc(F)cc1)c1ccccn1)C1CCN(CCOc2ccccc2C(F)(F)F)CC1 (centres unmarked) [Compound 52]
- functional profile at D2R (antagonist mode) [1]: representative dual antagonist

SMILES: O=C(NC(c1ccc(Cl)cc1)c1ccccn1)C1CCN(CCOc2ccc3cccnc3c2)CC1 (centres unmarked) [Compound 16]
- functional profile at D2R (agonist mode) [2]: representative cAMP-biased agonist
